Measured values published in paper PMC5323128.
Results are given in words; binding and its absence hold for the method and conditions named. Binding seen in cells or lysates may run through a third protein.

Molecular target: DR5, endogenous in Jurkat cells (human (endogenous in Jurkat)), O14763
Assay: co-IP; Jurkat cells treated with TRAIL^mim/DR5; immunoprecipitation analysis with anti-caspase-8 (clone C20) and anti-DR5 (Chemicon) antibodies; no further details told
Conditions: remark: other sources report otherwise

B1: Caspase-8, endogenous in Jurkat cells, Q14790 1-479 (enzyme)
chain: MDFSRNLYDIGEQLDSEDLASLKFLSLDYIPQRKQEPIKDALMLFQRLQEKRMLEESNLSFLKELLFRINRLDLLITYLNTRKEEMERELQTPGRAQISAYRVMLYQISEEVSRSELRSFKFLLQEEISKCKLDDDMNLLDIFIEMEKRVILGEGKLDILKRVCAQINKSLLKIINDYEEFSKERSSSLEGSPDEFSNGEELCGVMTISDSPREQDSESQTLDKVYQMKSKPRGYCLIINNHNFAKAREKVPKLHSIRDRNGTHLDAGALTTTFEELHFEIKPHDDCTVEQIYEILKIYQLMDHSNMDCFICCILSHGDKGIIYGTDGQEAPIYELTSQFTGLKCPSLAGKPKVFFIQACQGDNYQKGIPVETDSEEQPYLEMDLSSPQTRYIPDEADFLLGMATVNNCVSYRNPAEGTWYIQSLCQSLRERCPRGDDILTILTEVNYEVSNKDDKKNMGKQMPQPTFTLRKKLVFPSD
For B1, the binding was “no binding”.
